PubChem BioAssay AID1259254 | NCATS, 2017

Purpose: 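Genome-wide screen for genes that prevent DNA re-replication in cancer cells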 (primary screen)
Cells: human HCT116 colorectal cancer cells
Reagents: single siRNA against human genes
Timing: 3 days
Detection: 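Nuclei stained with Hoechst and imaged; cell-cycle phase assigned by DNA content; G2 share scaled per plate, non-targeting siRNA 0%, GMNN siRNA 100%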
Scale: G2 robust z-score and G2 cells, % of GMNN control: higher = more G2 cells, more excess DNA replication; raw share of cells in G2: higher = larger share of cells with G2 DNA content
Call rule: 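Active siRNAs have a G2 robust z of 5 or more median absolute deviations over the median, which in these data means about 38% or higher of GMNN control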
Here is an unselected part of about 59,000 deposited reagents. In the full data, about 1,550 (2.6%) are marked active. 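G2 share is only a proxy for re-replication; each gene was hit by three separate siRNAs, and active genes were retested.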 Raw values are not corrected between plates. The numbers tell different reagents against one gene apart. Not stated in the record: the amount of reagent.

no.	target	siRNA no.	G2 robust z-score	G2 cells, % of GMNN control	raw share of cells in G2 (%)	Outcome
1	BLK	1	0.132	3.89	6.89	inactive
2	BLK	2	-0.374	0.333	5.52	inactive
3	BLK	3	-0.199	1.57	4.58	inactive
4	TMEM208	1	2.55	20.9	11.9	inactive
5	TMEM208	2	-0.517	-0.669	4.3	inactive
6	TMEM208	3	7.54	56	20.9	active
7	ADPRHL1	1	0.197	4.36	6.13	inactive
8	ADPRHL1	2	3.14	25	17.3	inactive
9	ADPRHL1	3	0.958	9.71	9.13	inactive
10	RPL6P31	1	1.02	10.1	6.56	inactive
11	RPL6P31	2	0.91	9.37	7.24	inactive
12	RPL6P31	3	-0.863	-3.1	2.24	inactive
13	TUBA1A	1	-0.477	-0.39	5.43	inactive
14	TUBA1A	2	-1.18	-5.32	2.72	inactive
15	TUBA1A	3	0.921	9.45	7.78	inactive
16	NALF2	1	-0.727	-2.15	3.03	inactive
17	NALF2	2	2.5	20.6	12.3	inactive
18	NALF2	3	0.572	6.99	5.46	inactive
19	CCDC80	1	-0.537	-0.814	3.56	inactive
20	CCDC80	2	-0.488	-0.469	2.77	inactive
21	CCDC80	3	-0.861	-3.09	1.99	inactive
22	MICU1	1	-1.01	-4.15	2.15	inactive
23	MICU1	2	-0.829	-2.86	4.71	inactive
24	MICU1	3	-0.233	1.32	3.89	inactive
25	RTL8B	1	-0.129	2.06	4.42	inactive
26	RTL8B	2	0.698	7.88	6.4	inactive
27	RTL8B	3	0.912	9.39	6.31	inactive
28	CEP43	1	-0.118	2.14	5.82	inactive
29	CEP43	2	-0.682	-1.83	3.38	inactive
30	CEP43	3	-0.788	-2.58	2.21	inactive
31	SPSB2	1	3.38	26.7	16.6	inactive
32	SPSB2	2	-0.256	1.16	5.22	inactive
33	SPSB2	3	-1.4	-6.91	1.69	inactive
34	DENND4B	1	-0.355	0.471	5.54	inactive
35	DENND4B	2	0.0501	3.32	5.33	inactive
36	DENND4B	3	-0.396	0.182	3.47	inactive
37	RPAP1	1	0.145	3.99	5.91	inactive
38	RPAP1	2	0.196	4.34	5.82	inactive
39	RPAP1	3	-0.933	-3.6	2.04	inactive
40	GNL3L	1	0.0986	3.66	5.6	inactive
41	GNL3L	2	1.28	12	8.38	inactive
42	GNL3L	3	1.13	11	10.9	inactive
43	MTG1	1	4.7	36	20.4	inactive
44	MTG1	2	-0.34	0.572	4.7	inactive
45	MTG1	3	0.276	4.91	7.95	inactive

Next part, starting with the last 3 of the part before.
no.	target	siRNA no.	G2 robust z-score	G2 cells, % of GMNN control	raw share of cells in G2 (%)	Outcome
43	MTG1	1	4.7	36	20.4	inactive
44	MTG1	2	-0.34	0.572	4.7	inactive
45	MTG1	3	0.276	4.91	7.95	inactive
46	SLC16A13	1	2.32	19.3	12.8	inactive
47	SLC16A13	2	-1.08	-4.61	3.76	inactive
48	SLC16A13	3	1.26	11.8	9.03	inactive
49	CD320	1	-0.174	1.75	4.23	inactive
50	CD320	2	-0.959	-3.78	2.68	inactive
51	CD320	3	1.18	11.3	6.92	inactive
52	PNMT	1	-0.677	-1.8	3.99	inactive
53	PNMT	2	-0.227	1.37	5.45	inactive
54	PNMT	3	1.34	12.4	8.26	inactive
55	FBXW4	1	1.62	14.4	11.1	inactive
56	FBXW4	2	2.02	17.2	11	inactive
57	FBXW4	3	-0.973	-3.88	1.95	inactive
58	KTI12	1	-0.192	1.62	6.42	inactive
59	KTI12	2	6.36	47.7	25.5	active
60	KTI12	3	-1.25	-5.8	2.29	inactive
61	C19orf73	1	-1.32	-6.31	1.12	inactive
62	C19orf73	2	-1.05	-4.43	2.82	inactive
63	C19orf73	3	0.495	6.45	6.81	inactive
64	POTEKP	1	3.53	27.8	15.8	inactive
65	POTEKP	2	10	73.5	31.1	active
66	POTEKP	3	-0.861	-3.09	4.57	inactive
67	TEX13A	1	2.93	23.6	14.2	inactive
68	TEX13A	2	-0.265	1.1	4.83	inactive
69	TEX13A	3	0.0986	3.66	8.03	inactive
70	TADA1	1	-0.735	-2.2	3.21	inactive
71	TADA1	2	-0.881	-3.23	2.37	inactive
72	TADA1	3	0.106	3.71	2.9	inactive
73	FAM241A	1	-0.182	1.69	3.19	inactive
74	FAM241A	2	0.945	9.61	7.8	inactive
75	FAM241A	3	-0.466	-0.309	3	inactive
76	MLANA	1	2.8	22.7	15.9	inactive
77	MLANA	2	0.164	4.12	5.6	inactive
78	MLANA	3	0.167	4.14	5.15	inactive
79	GML	1	-1.05	-4.39	3.24	inactive
80	GML	2	0.0709	3.47	5.36	inactive
81	GML	3	0.59	7.12	6.31	inactive
82	ACTR10	1	2.89	23.3	12.8	inactive
83	ACTR10	2	-0.437	-0.104	4.29	inactive
84	ACTR10	3	0.524	6.66	9.35	inactive
85	EDNRB	1	-0.145	1.95	6.54	inactive
86	EDNRB	2	1.16	11.2	8.42	inactive
87	EDNRB	3	-1.12	-4.93	1.76	inactive
